# Data as given in PubChem BioAssay AID1224826 (NIAID, 2016)
# Test: 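Genes that change LPS-induced Tnf promoter activity in mouse macrophages when knocked down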 (primary screen)
# Cell system: RAW264.7 G9 macrophages from mouse bearing reporters for p65 (GFP) and the Tnf promoter (mCherry)
# Reagents: siRNA pool against mouse genes, 100 nM
# Time to read-out: 16 h of LPS stimulation, after 2 days of siRNA transfection
# Conditions: bacterial lipopolysaccharide (Salmonella minnesota R595), 10 ng/ml
# Measured: 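Imaged Tnf reporter mCherry in nuclei, minus background, normalised per plate to the median and expressed as robust z-scores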
# Direction: Tnf reporter robust z-score: higher = stronger Tnf promoter reporter signal after LPS; Tnf reporter intensity: higher = stronger Tnf promoter reporter signal
# Active means: 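a well counts as active at a score of -1.3 or below (Tlr4 knock-down control median) or above 3 (raised signal); controls and wells holding fewer than 50 cells are excluded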
# Meaning of the calls: active = Tnf reporter clearly lowered or raised; inactive = no clear change in Tnf reporter
# The deposit covers about 17,000 reagents; this is a part drawn at random. Of all reagents, about 1,110 (6.6%) were called active. 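Active means lowered or raised reporter signal; replicate intensities are raw and not normalised per plate.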 The numbers tell different reagents against one gene apart. Reagent sequences are not shown.
target gene,reagent,Tnf reporter robust z-score,fewer than 50 cells in well,"Tnf reporter intensity, replicate 1","Tnf reporter intensity, replicate 2",call
Pdcd10 (GeneID 56426),1,0.78,enough cells in well,294,237,inactive
Tgtp1 (GeneID 21822),1,,fewer than 50 cells per well; well left out of calls,159,93.9,inactive
Ifitm1 (GeneID 68713),1,-0.96,enough cells in well,161,127,inactive
Rai14 (GeneID 75646),1,1.54,enough cells in well,184,210,inactive
Vmn1r40 (GeneID 113855),1,0.63,enough cells in well,175,83,inactive
Cyp2s1 (GeneID 74134),1,1.23,enough cells in well,277,233,inactive
4930542C12Rik (GeneID 67648),1,,fewer than 50 cells per well; well left out of calls,312,195,inactive
Igsf3 (GeneID 78908),1,,fewer than 50 cells per well; well left out of calls,83.6,65.2,inactive
Ccdc125 (GeneID 76041),1,,fewer than 50 cells per well; well left out of calls,178,163,inactive
Mrps16 (GeneID 66242),1,-0.24,enough cells in well,259,69.5,inactive
Dlgap1 (GeneID 224997),1,0.89,enough cells in well,183,219,inactive
Elavl3 (GeneID 15571),1,-0.49,enough cells in well,176,209,inactive
Or6c213 (GeneID 258546),1,,fewer than 50 cells per well; well left out of calls,92.8,66,inactive
Foxo4 (GeneID 54601),1,-1.31,enough cells in well,166,98.9,active
Adprhl1 (GeneID 234072),1,0.66,enough cells in well,191,225,inactive
Gjb6 (GeneID 14623),1,-0.82,enough cells in well,191,165,inactive
Chn1 (GeneID 108699),1,-1.1,enough cells in well,77.4,147,inactive
Ppp1r35 (GeneID 69871),1,,fewer than 50 cells per well; well left out of calls,120,74.5,inactive
Prl2c3 (GeneID 18812),1,0,enough cells in well,131,128,inactive
Garnl3 (GeneID 99326),1,-0.24,enough cells in well,217,133,inactive
Triobp (GeneID 110253),1,0.3,enough cells in well,134,95.4,inactive
Trmt6 (GeneID 66926),1,,fewer than 50 cells per well; well left out of calls,229,115,inactive
Grin1 (GeneID 14810),1,1.51,enough cells in well,378,364,inactive
Mansc4 (GeneID 545893),1,-0.3,enough cells in well,165,125,inactive
Yae1d1 (GeneID 67008),1,-0.82,enough cells in well,204,51.9,inactive
Sema3a (GeneID 20346),1,-0.42,enough cells in well,228,194,inactive
Kcnh1 (GeneID 16510),1,-0.43,enough cells in well,225,113,inactive
Rab35 (GeneID 77407),1,-0.12,enough cells in well,137,168,inactive

Part of the list above, reformatted:
| target gene | reagent | Tnf reporter robust z-score | fewer than 50 cells in well | Tnf reporter intensity, replicate 1 | Tnf reporter intensity, replicate 2 | call |
| --- | --- | --- | --- | --- | --- | --- |
| Ppp1r35 (GeneID 69871) | 1 | – | fewer than 50 cells per well; well left out of calls | 120 | 74.5 | inactive |
| Prl2c3 (GeneID 18812) | 1 | 0 | enough cells in well | 131 | 128 | inactive |
| Garnl3 (GeneID 99326) | 1 | -0.24 | enough cells in well | 217 | 133 | inactive |
| Triobp (GeneID 110253) | 1 | 0.3 | enough cells in well | 134 | 95.4 | inactive |
| Trmt6 (GeneID 66926) | 1 | – | fewer than 50 cells per well; well left out of calls | 229 | 115 | inactive |
| Grin1 (GeneID 14810) | 1 | 1.51 | enough cells in well | 378 | 364 | inactive |
| Mansc4 (GeneID 545893) | 1 | -0.3 | enough cells in well | 165 | 125 | inactive |

The results go on:
target gene,reagent,Tnf reporter robust z-score,fewer than 50 cells in well,"Tnf reporter intensity, replicate 1","Tnf reporter intensity, replicate 2",call
Atp7b (GeneID 11979),1,-0.08,enough cells in well,150,146,inactive
Abhd11 (GeneID 68758),1,0.31,enough cells in well,306,237,inactive
Plekha4 (GeneID 69217),1,0.45,enough cells in well,154,145,inactive
Slc41a1 (GeneID 98396),1,,fewer than 50 cells per well; well left out of calls,20.4,13,inactive
Ptges2 (GeneID 96979),1,0.94,enough cells in well,183,159,inactive
Mrpl23 (GeneID 19935),1,1.4,enough cells in well,279,186,inactive
Serpini2 (GeneID 67931),1,0.65,enough cells in well,372,234,inactive
Knstrn (GeneID 51944),1,1.35,enough cells in well,326,192,inactive
Heatr1 (GeneID 217995),1,1.62,enough cells in well,273,374,inactive
Adgre4 (GeneID 52614),1,-0.51,enough cells in well,153,289,inactive
Zfp7 (GeneID 223669),1,-0.32,enough cells in well,190,223,inactive
Elmo2 (GeneID 140579),1,1.34,enough cells in well,295,151,inactive
Ankrd7 (GeneID 75196),1,-0.24,enough cells in well,122,147,inactive
4930522H14Rik (GeneID 67646),1,-0.59,enough cells in well,168,35.9,inactive
Zwilch (GeneID 68014),1,,fewer than 50 cells per well; well left out of calls,48.6,75.4,inactive
Mettl16 (GeneID 67493),1,-0.1,enough cells in well,240,56.7,inactive
Pde2a (GeneID 207728),1,0.04,enough cells in well,243,185,inactive
Il11ra2 (GeneID 16158),1,-0.3,enough cells in well,227,158,inactive
Barhl1 (GeneID 54422),1,-0.48,enough cells in well,171,177,inactive
Tars1 (GeneID 110960),1,,fewer than 50 cells per well; well left out of calls,14,153,inactive
Or5w12 (GeneID 258654),1,0.24,enough cells in well,235,136,inactive
Toporsl (GeneID 68274),1,,fewer than 50 cells per well; well left out of calls,297,144,inactive
Mettl28 (GeneID 72658),1,0.61,enough cells in well,258,97.9,inactive
H2-T22 (GeneID 15039),1,2.16,enough cells in well,362,326,inactive
H2-T22 (GeneID 15039),2,-1.6,enough cells in well,115,74.4,active
H2-T22 (GeneID 15039),3,-0.43,enough cells in well,234,124,inactive
Scfd2 (GeneID 212986),1,2.49,enough cells in well,195,275,inactive
Irgm2 (GeneID 54396),1,-0.43,enough cells in well,208,130,inactive
Dbf4 (GeneID 27214),1,0.89,enough cells in well,289,175,inactive
Cd209a (GeneID 170786),1,-1.08,enough cells in well,93.2,127,inactive
